Measurements taken from PMC4887207, “Viral hijacking of a replicative helicase loader and its implications for helicase loading control and phage replication” (eLife, 2016).
No constants are given. Whether binding was seen depends on the method and setting. Some binding calls cover weakened binding; strength is not graded here.

What was measured:
[1] = target: T1, full-length Staphylococcus aureus DnaI (Staphylococcus aureus) (UniProt Q3ZUA6); experiment: pull-down; amylose pull-down of His6MBP-77ORF104 with SaDnaI and SaDnaC in the presence of nucleotide; not shown; both purified
T1 sequence: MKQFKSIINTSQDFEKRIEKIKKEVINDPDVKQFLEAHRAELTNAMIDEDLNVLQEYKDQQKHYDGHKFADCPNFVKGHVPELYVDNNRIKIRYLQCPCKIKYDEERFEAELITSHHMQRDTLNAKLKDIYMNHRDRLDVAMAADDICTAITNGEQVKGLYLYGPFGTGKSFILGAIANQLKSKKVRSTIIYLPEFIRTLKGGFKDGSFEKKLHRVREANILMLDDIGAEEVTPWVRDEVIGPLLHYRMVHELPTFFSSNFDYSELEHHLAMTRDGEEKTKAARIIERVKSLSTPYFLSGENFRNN

[2] = target: T1, full-length Staphylococcus aureus DnaI (Staphylococcus aureus); experiment: SEC; analytical gel filtration, 5/150 GL Superdex 200; 20 mM Tris-HCl pH 8.0, 200 mM NaCl, 5% glycerol, 5 mM MgCl2, 1 mM BME, 10 mM ATP; 7 µM SaDnaC, 14 µM SaDnaI, 14 µM 77ORF013, 30 µM 77ORF104; peak fractions on SDS-PAGE; both purified
[3] = target: T1, full-length Staphylococcus aureus DnaI (Staphylococcus aureus); experiment: pull-down; amylose pull-down, His6MBP-tagged protein as bait (10 µM), untagged protein as prey (20 µM); without ATP or nucleotide where stated (Figures 2C, 4C), ATP not told for the other panels; 20 mM HEPES-KOH pH 7.5, 100 mM NaCl, 5 mM MgCl2, 10% glycerol, 1 mM DTT, 25°C; SDS-PAGE; both purified

Measured: binding

B1: SaDnaC replicative helicase (natural protein, Staphylococcus aureus, UniProt Q9AQH7 1-466, looked up)
chain: MDRMYEQNQMPHNNEAEQSVLGSIIIDPELINTTQEVLLPESFYRGAHQHIFRAMMHLNEDNKEIDVVTLMDQLSTEGTLNEAGGPQYLAELSTNVPTTRNVQYYTDIVSKHALKRRLIQTADSIANDGYNDELELDAILSDAERRILELSSSRESDGFKDIRDVLGQVYETAEELDQNSGQTPGIPTGYRDLDQMTAGFNRNDLIILAARPSVGKTAFALNIAQKVATHEDMYTVGIFSLEMGADQLATRMICSSGNVDSNRLRTGTMTEEDWSRFTIAVGKLSRTKIFIDDTPGIRINDLRSKCRRLKQEHGLDMIVIDYLQLIQGSGSRASDNRQQEVSEISRTLKALARELKCPVIALSQLSRGVEQRQDKRPMMSDIRESGSIEQDADIVAFLYRDDYYNRGGDEDDDDDGGFEPQTNDENGEIEIIIAKQRNGPTGTVKLHFMKQYNKFTDIDYAHADMM
notes: Staphylococcus aureus replicative helicase DnaC (a DnaB-family helicase); also called S. aureus DnaC replicative helicase; host helicase; not shown: His6, N-terminal, cleaved; MBP, N-terminal, cleaved
binds: all assays above
